Experimental data taken from patent US20230131501A1, “THERAPEUTIC USES OF INHIBITORS OF THE RNA-BINDING PROTEIN HuR” (University of Kansas, priority 2020, published 2023).
At least one structure is not confirmed: it was looked up by name or label, or the drawing left a doubt.

The chains behind the UniProt entries cited, without tags or fusion partners. Residues count along the entry.
UniProt Q15717, 2-326 limits assumed: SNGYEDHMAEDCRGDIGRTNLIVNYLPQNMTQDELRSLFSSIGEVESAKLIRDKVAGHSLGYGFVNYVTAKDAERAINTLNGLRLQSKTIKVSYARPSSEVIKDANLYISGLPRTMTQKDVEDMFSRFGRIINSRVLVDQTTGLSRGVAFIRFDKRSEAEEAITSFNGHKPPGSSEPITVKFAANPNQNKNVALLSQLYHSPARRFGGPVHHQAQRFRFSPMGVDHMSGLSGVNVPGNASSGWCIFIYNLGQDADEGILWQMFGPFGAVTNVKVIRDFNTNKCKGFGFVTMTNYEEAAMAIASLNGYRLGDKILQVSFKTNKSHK

What was measured:
PANC-1 cells [1] = test: Tumor spheres formation; format: cell-based, human; conditions: 10 μM of KH-3, 14 days
[2] = system: EMT markers in PANC-1 cells; test: Western blot of EMT markers; format: cell-based, human
[3] = system: EMT markers in MIA PaCa2 cells; test: Western blot of EMT markers; format: cell-based, human
[4] = biological target: T1, HuR-bound target mRNAs in HCT-116 β/w cells (Homo sapiens, UniProt Q15717); test: Pull-down assay #2, ribonucleoprotein immunoprecipitation; format: cell-based; conditions: qRT-PCR
T1 construct: endogenous in cells; host or cells: HCT-116 β/w cells, cytoplasmic lysate

PANC-1 cells [5] = test: Boyden chamber trans-well assay (Matrigel assay); format: cell-based, human
[6] = system: HuR target mRNAs (Bcl-2, XIAP, Msi1, HuR) in HCT-116 β/w cells; test: mRNA stability by qRT-PCR after co-treatment with Actinomycin D; format: cell-based; parameters: dose or concentration left out as unconfirmed
Description: HuR target mRNA levels were measured by qRT-PCR.
(§1) As HuR promotes stability of its target mRNAs, it is expected that HuR-inhibitors will block HuR function and shorten the half-life (t1/2) of target mRNAs. mRNA stability was determined via quantitative real-time PCR (qRT-PCR) after co-treatment of compounds of the present technology and Actinomycin D (a transcription inhibitor). […] Because HuR also increases the translation of target mRNAs, the effect of compounds of the present technology was tested on protein levels of HuR targets by Western blot analysis.

231-TR xenograft = 231-TR xenograft model; format: in vivo, mice
TM00298 PDX = test: Castration resistant prostate cancer patient-derived xenograft (PDX) model; format: in vivo, NSG mice; conditions: 50 mg/kg i.p. five times per week for four weeks; P<0.001, n=10
[7] = system: doxorubicin-resistant MDA-MB-231 cell line (231-DR); test: Cytotoxicity assay, doxorubicin-resistant cells; format: cell-based; conditions: sub-lethal concentrations of KH-3, 231-DR cells
Description: (§2) To further mimic clinical conditions and assess overcoming acquired chemo-resistance via compounds of the present technology, docetaxel-resistant and doxorubicin-resistant MDA-MB-231 cells were generated by continuous exposure of cells to increasing concentrations of docetaxel (TXT) or doxorubicin (DXR). Cytotoxicity assays were then performed to assess the chemo-resistance of the produced cell lines as well as assess the sensitivity of such chemo-resistant cell lines to compounds of the present technology.
(§3) Cytotoxicity assays were then performed utilizing concentrations of KH-3 that were below the lethal threshold for the compound (a “sub-lethal concentration”) in combination with docetaxel or doxorubicin to determine whether compounds of the present technology may sensitize cancer cell lines (including chemo-resistance cancer cell lines) to chemotherapy. FIGS. 11A-11B illustrate that sub-lethal concentrations of KH-3 sensitizes both MDA-MB-231 cells and docetaxel-resistant 231-TR cells to docetaxel treatment (FIGS. 11A-11B), and FIGS. 11C-D illustrate that sub-lethal concentrations of KH-3 sensitizes both MDA-MB-231 cells and doxorubicin-resistant 231-DR cells to doxorubicin treatment (FIGS. 11C-11D).

MIA PaCa2 HuR KO tumors = test: Subcutaneous MIA PaCa2 HuR KO tumor model; format: in vivo, mice; conditions: 100 mg/kg, IP, 3× weekly, from the day of inoculation
[8] = system: protein levels of HuR targets in HCT-116 β/w cells; test: Western blot of HuR targets; format: cell-based
Description: as §1

[9] = system: protein levels of HuR targets in MDA-MB-231 cells; test: Western blot of HuR targets; format: cell-based
Description: as §1

Snail mRNA = test: mRNA decay after actinomycin D; format: cell-based; conditions: 2 μM KH-3, actinomycin D
MIA PaCa2 cells [10] = test: Wound healing assay; format: cell-based, human
MIA PaCa2 cells [11] = test: Boyden chamber trans-well assay (Matrigel assay); format: cell-based, human
[12] = system: HuR interaction with Snail mRNA 3′-UTR in MIA PaCa2 HuR KO cells; test: Dual-Glo luciferase reporter assay with Snail 3′-UTR constructions; format: cell-based, human; conditions: co-transfection of HuR; KH-3 for 24 h
PC-3a xenograft = PC-3a xenograft model; format: in vivo, athymic nude mice; conditions: 50 mg/kg, i.p., 5 times/week × 3 weeks; P<0.001, n=12
MDA-MB-231 cells = test: Matrigel invasion assay; format: cell-based; conditions: 24 h pretreatment, 20 h in Matrigel chamber
MDA-MB-231 xenograft = MDA-MB-231 xenograft model; format: in vivo, mice; conditions: intraperitoneal, three times per week for three weeks; P<0.001, n=12
MDA-MB-231 = test: Cytotoxicity assay (WST-8); format: cell-based; conditions: sub-lethal concentrations of KH-3, MDA-MB-231 cells
Description: The cytotoxicity of the tested compounds in several cancer cell lines (HCT116 β/w, MIAPaCa-2, and MDA-MB-231) was determined by a cytotoxicity assay, where the results are provided in Table 1. Cells were seeded in 96-well culture plates (5,000 cells/well) and treated with titrated compounds in triplicate. After 96 h incubation, cell growth medium was removed and proliferation reagent WST-8 (Sigma) was added to each well and incubated at 37° C. for 1-3 h. Absorbance was then measured with a plate reader at 450 nm with correction at 650 nm. The results were expressed as the percentage of absorbance of treated wells versus that of vehicle control. IC50, the drug concentration causing 50% growth inhibition, was calculated via sigmoid curve fitting using GraphPad Prism 5.0. […]

[13] = system: docetaxel-resistant MDA-MB-231 cell line (231-TR); test: Cytotoxicity assay, docetaxel-resistant cells; format: cell-based; conditions: sub-lethal concentrations of KH-3, 231-TR cells
Description: as §2, §3

PANC-1 cells [14] = test: Wound healing assay; format: cell-based, human
[15] = system: siHuR cells (MIA PaCa2 and PANC-1) and CRISPER/Cas9 HuR KO cells (MIA PaCa2); test: Migration in HuR knockdown / HuR re-expressing cells (target specificity); format: cell-based, human
[16] = system: PANC-1-Luc orthotopic pancreatic xenografts; test: Orthotopic pancreatic tumor model (PANC-1-Luc); format: in vivo, nude mice
Description: All animal procedures were approved by the Institutional Animal Care and Use Committee at the University of Kansas Medical Center under the protocol #2015-2247. Dose of KH-3 was pre-determined by a pilot experiment to be 100 mg/kg body weight, intraperitoneal injection (IP), three times weekly. All treatment in this pancreatic cancer section of the present disclosure concerning KH-3 used this dose regimen.
An orthotopic pancreatic tumor model was used to determine treatment effects of KH-3. Luciferase-expressing PANC-1 cells (PANC-1-Luc, multi-clones) were established by the Preclinical Proof of Concept Core Laboratory (University of Kansas Medical Center, Kansas City, Kans.). A small subcostal laparotomy was performed in female Ncr nu/nu mice to expose the pancreas, and 2×10^5 PANC-1-Luc cells in 50 μL PBS were injected into the tail of pancreas. After 11 days, the localized tumors inside the pancreas of these donor mice were removed and minced into small pieces of 1 mm^3 cube. One tumor cube was implanted into the pancreas of one recipient nude mouse by laparotomy. After 11 days, the recipient mice were scanned for xenograft formation using an IVIS imaging system (Waltham, Mass.) upon IP injection of 150 mg/kg D-luciferin. Mice were grouped based on tumor burden and treatment commenced as described, with weekly follow-up imaging. Treatment lasted for 5 weeks, and gross necropsy was performed at the end of treatment.
The in vivo tumor inhibitory effects of KH-3 were tested in a highly metastatic orthotopic model of pancreatic cancer. Briefly, with 2×10^5 PANC-1 cells implanted into the pancreatic parenchyma of nude mouse, it gave 90% tumor formation rate in the pancreas, with ˜60% of these mice having metastases in the liver and peritoneal cavity in 5 weeks. For in vivo tumor imaging purpose, cells transfected with luciferase was established. Tumor progression is monitored by weekly imaging using an IVIS Spectrum imaging system (Caliper Life Sciences). To avoid peritoneal lesions resulted from leak of injection, 5 mice (donor mice) were injected with luciferase expressing PANC-1 cells (PANC-1-Luc) and tumors were allowed to form for 4 weeks. Then tumors in the pancreas of these donor mice were harvested and cut into ˜1 mm^3 and implanted into the pancreatic parenchyma of recipient mice. After 2 weeks, tumor development in the pancreas of the recipient mice was detected by imaging. Mice were then grouped and treatment commenced (n=9 for control group, and n=10 for KH-3 treated group). The dose regimen of KH-3 was determined by a pilot dose-finding experiment to be 100 mg/kg, intraperitoneal injection (IP), three times (3×) weekly, which was the highest dose without showing toxicity. […]

BxPC-3 cells = test: Tumor spheres formation; format: cell-based, human; conditions: 8 μM of KH-3, 14 days
[17] = biological target: T2, HuR-bound target mRNAs in MDA-MB-231 cells (Homo sapiens, UniProt Q15717); test: Pull-down assay #2, ribonucleoprotein immunoprecipitation; format: cell-based; conditions: qRT-PCR
T2 construct: endogenous in cells; host or cells: MDA-MB-231 cells, cytoplasmic lysate

[18] = biological target: T3, HuR binding of mRNAs of Snail, Slug, Zeb1, β-catenin, HuR and Msi1 in MIA PaCa2 cells (Homo sapiens, UniProt Q15717); test: RNP-IP assay of EMT related mRNAs; format: cell-based; conditions: 2 μM for 24 hours
T3 construct: endogenous in cells; host or cells: MIA PaCa-2 cells, total cell lysate

[19] = system: PARP cleavage, LC3 conversion, and RIP3 activation; test: Western blot of cell death mechanisms; format: cell-based
Source text: FIGS. 8A-8C provide the results of Western blot analysis illustrating that KH-3 decreases the protein levels of HuR targets in HCT-116 β/w cells (FIG. 8A) and MDA-MB-231 cells (FIG. 8B) and is involved in cell death mechanisms by inducing PARP cleavage, LC3 conversion, and RIP3 activation (FIG. 8C), according to the working examples.
as §1

[20] = 100 mg/kg IP 3× weekly, 5 weeks

## CC(C)(C)c1ccc(S(=O)(=O)Nc2ccc3sc(/C=C/C(=O)NO)cc3c2)cc1 [KH-3]
PANC-1 cells [1]
  tumor spheres formation: eliminated tumor spheres formation
[2]
  EMT signature gene expression: Vimentin and Snail decreases, and Claudin1 increase
  HuR expression: not changed
[3]; 2 μM KH-3
  protein level of Snail: decreased the protein level of Snail
[3]; MIA PaCa2 cells
  EMT signature gene expression: Vimentin and Snail decreases, and Claudin1 increase
  HuR expression: not changed
[4]
  HuR pull-down of target mRNAs: partially blocks
PANC-1 cells [5]
  migration and invasion, Boyden chamber trans-well assay: inhibited
[6]
  stability of HuR target mRNAs (Bcl-2, XIAP, Msi1, HuR mRNA): decreases the stability
231-TR xenograft; 50 mg/kg KH-3 and 6 mg/kg docetaxel
  sensitization of docetaxel-resistant tumors: sensitizes docetaxel-resistant tumors to docetaxel treatment
231-TR xenograft; 50 mg/kg KH-3 i.p. five times per week for three weeks
  231-TR tumor growth: significantly inhibits 231-TR tumor growth
TM00298 PDX
  tumor growth vs vehicle control: significantly inhibited tumor growth
[7]
  sensitization to doxorubicin treatment: sensitizes
MIA PaCa2 HuR KO tumors
  tumor formation and tumor growth of HuR KO tumors: did not influence either tumor formation or tumor growth
[8]
  protein levels of HuR targets: decreased the protein levels
[9]
  protein levels of HuR targets: decreased the protein levels
Snail mRNA
  Snail mRNA decay: enhanced Snail mRNA decay
MIA PaCa2 cells [10]
  migration, wound healing assay: inhibited
MIA PaCa2 cells [11]
  migration and invasion, Boyden chamber trans-well assay: inhibited
[12]
  luminescence signal, full-length Snail 3′-UTR or AREs: inhibited the luminescence signal
  luminescence signal, ΔAREs (no HuR binding elements): no influence on the luminescence signal
PC-3a xenograft
  PC-3a tumor growth vs vehicle control: significantly inhibited PC-3a tumor growth
MDA-MB-231 cells
  MDA-MB-231 cell invasion: inhibited
MDA-MB-231 xenograft
  tumor growth vs vehicle control: significantly decreased tumor growth
MDA-MB-231
  sensitization to docetaxel treatment: sensitizes
  sensitization to doxorubicin treatment: sensitizes
[13]
  sensitization to docetaxel treatment: sensitizes
PANC-1 cells [14]
  migration, wound healing assay: inhibited
[15]; HuR-expressing plasmid
  migration after restoration of HuR expression in HuR KO cells: showed inhibitory effect again
[15]; siHuR and HuR KO cells
  migration in HuR knocked down cells: did not show additional effects
[16]; [20]
  final tumor weight: significantly reduced
  longitudinal tumor growth and tumor burden (IVIS imaging): significantly inhibited longitudinal tumor growth and reduced tumor burden
[16]; end of the study
  EMT markers in tumor tissues (Western blots): Claudin1 and ZO1 were upregulated in the KH-3 treated mice, and Snail was downregulated
[16]; immunohistochemistry
  expression level of HuR in the tumor tissues: did not change
BxPC-3 cells
  tumor spheres formation: significantly inhibited both the number and the size of tumor spheres
[17]
  HuR pull-down of target mRNAs: partially blocks
[18]
  pull-down amounts of mRNAs of Snail, Slug, Zeb1, β-catenin, HuR and Msi1: significantly decreased
[19]
  cell death mechanisms (PARP cleavage, LC3 conversion, RIP3 activation): induced cell death through apoptosis, autophagy and necroptosis
